In EP2578599A1 (LanthioPep B.V., priority 2011, dated 2013):
At least one peptide structure holds a part that was inferred or is arguable (an end, a ring closure or a residue).

Test system: RIN-5F cells
Assay: Induction of cAMP production in RIN-5F cells, competitive cAMP ELISA of medium
Assay type: cell-based
Conditions: 10 minutes at 100 nM, no antagonist

CC[C@H](C)[C@H](NC(=O)[C@H](Cc1ccccc1)NC(=O)[C@H](CCC(=O)O)NC(=O)[C@H](CCCCN)NC(=O)[C@H](C)NC(=O)[C@H](C)NC(=O)[C@H](CCC(N)=O)NC(=O)CNC(=O)[C@@H]1CSC(C)C(NC(=O)[C@H](C)NC(=O)[C@@H](NC(=O)[C@H](CC(=O)O)NC(=O)[C@H](CO)NC(=O)[C@@H](NC(=O)[C@H](Cc2ccccc2)NC(=O)[C@@H](NC(=O)CNC(=O)[C@H](CCC(=O)O)NC(=O)[C@H](C)NC(=O)[C@@H](N)Cc2c[nH]cn2)[C@@H](C)O)[C@@H](C)O)C(C)C)C(=O)N[C@@H](Cc2ccc(O)cc2)C(=O)N[C@@H](CC(C)C)C(=O)N1)C(=O)N[C@@H](C)C(=O)N[C@@H](Cc1c[nH]c2ccccc12)C(=O)N[C@@H](CC(C)C)C(=O)N[C@H](C(=O)N[C@@H](CCCCN)C(=O)NCC(=O)N[C@@H](CCCNC(=N)N)C(=O)NCC(=O)O)C(C)C (some centres unmarked) [GLP1-M8c]
cAMP release (activity) (listed as 18-21 thioether bridged GLP-1 analog): active | cAMP release (activity) (listed as thioether bridge between positions Xaa^17 and Xaa^21): reduced as compared to the linear counterpart GLP-1
